Source: PMC8335679
No constants are given. Whether binding was seen depends on the method and setting. In cells and extracts the contact can be indirect. Some binding calls cover weakened binding; strength is not graded here.

Sequences of proteins named here, by UniProt entry; tags and fusion partners are left off.
UniProt O43516: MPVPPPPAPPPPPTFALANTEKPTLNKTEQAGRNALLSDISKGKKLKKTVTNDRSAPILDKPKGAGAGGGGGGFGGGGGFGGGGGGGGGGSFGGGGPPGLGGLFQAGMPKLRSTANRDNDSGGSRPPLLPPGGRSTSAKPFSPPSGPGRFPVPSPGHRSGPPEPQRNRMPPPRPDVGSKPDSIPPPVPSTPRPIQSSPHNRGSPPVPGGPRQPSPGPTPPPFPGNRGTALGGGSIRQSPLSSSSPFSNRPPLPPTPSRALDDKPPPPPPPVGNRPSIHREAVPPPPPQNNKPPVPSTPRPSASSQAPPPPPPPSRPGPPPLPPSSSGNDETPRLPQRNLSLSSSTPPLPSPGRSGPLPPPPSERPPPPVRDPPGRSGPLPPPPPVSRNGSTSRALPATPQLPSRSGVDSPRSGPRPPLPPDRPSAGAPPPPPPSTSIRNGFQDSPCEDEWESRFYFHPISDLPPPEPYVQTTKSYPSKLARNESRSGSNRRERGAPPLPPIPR
UniProt P61586: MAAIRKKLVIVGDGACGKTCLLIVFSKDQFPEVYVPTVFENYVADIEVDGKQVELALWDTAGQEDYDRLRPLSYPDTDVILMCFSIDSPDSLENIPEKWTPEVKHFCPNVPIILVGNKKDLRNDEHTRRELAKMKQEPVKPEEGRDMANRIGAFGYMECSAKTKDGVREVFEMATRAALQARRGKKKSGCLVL

Molecular target: WIPF1 (human) (UniProt O43516)
Assay: co-IP; cell extracts incubated with antibodies against WIPF1 or RhoA, then protein A/G-Sepharose overnight at 4 C; washed with lysis buffer and ice-cold PBS; immunoblot

RhoA (from UniProt P61586 1-193) was tested, and the binding was “binds”.
